In PMC8384837:
Where a chain is given by its changes, count along the chain named. The list shows a part of the results. For some assays here: At the low end of the ranking the order means little. For some assays here: The exact form of the protein is not confirmed.

Assays:
Conditions in all cases: yeast three-hybrid, YBZ-1, SC-Leu-His + 0.5 mM 3-AT, 4 days
[1] = target: T1, PUM1 PUF domain R5-PHQ R6-SWD C1007P + R1008H + N1043S + Y1044W + Q1047D (UniProt Q14671)
T1 sequence: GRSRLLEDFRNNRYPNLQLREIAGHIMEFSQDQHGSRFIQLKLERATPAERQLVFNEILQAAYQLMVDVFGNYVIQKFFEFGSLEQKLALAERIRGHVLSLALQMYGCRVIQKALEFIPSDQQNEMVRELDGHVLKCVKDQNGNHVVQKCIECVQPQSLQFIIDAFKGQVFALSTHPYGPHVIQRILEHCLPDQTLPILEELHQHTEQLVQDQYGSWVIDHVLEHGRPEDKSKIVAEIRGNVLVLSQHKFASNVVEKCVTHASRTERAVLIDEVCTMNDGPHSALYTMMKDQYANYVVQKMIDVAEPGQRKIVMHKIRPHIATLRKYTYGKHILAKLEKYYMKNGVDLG

[2] = target: T2, PUM1 PUF domain R3-THE R4-TFR R7-NPG C935T + R936H + Q939E + N971T + H972F + Q975R + S1079N + N1080P + E1083G (UniProt Q14671)
T2 sequence: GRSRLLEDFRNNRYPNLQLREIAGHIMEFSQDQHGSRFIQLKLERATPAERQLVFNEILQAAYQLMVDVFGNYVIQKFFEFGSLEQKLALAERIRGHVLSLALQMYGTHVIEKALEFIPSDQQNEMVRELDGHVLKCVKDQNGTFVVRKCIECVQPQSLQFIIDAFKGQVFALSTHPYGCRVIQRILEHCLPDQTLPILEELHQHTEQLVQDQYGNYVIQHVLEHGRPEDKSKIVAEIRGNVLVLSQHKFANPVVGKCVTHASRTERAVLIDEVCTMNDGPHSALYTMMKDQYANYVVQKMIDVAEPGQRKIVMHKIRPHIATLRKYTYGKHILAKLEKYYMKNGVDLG

[3] = target: T3, PUM1 PUF domain R6-SWD R7-NPG N1043S + Y1044W + Q1047D + S1079N + N1080P + E1083G (Homo sapiens) (UniProt Q14671)
T3 sequence: T1 sequence with P180C, H181R, S252N, N253P, E256G

[4] = target: T4, PUM1 PUF domain R6-SWD R7-NPG N1043S + Y1044W + Q1047D + S1079N + N1080P + E1083G (UniProt Q14671)
T4 sequence: T1 sequence with P180C, H181R, S252N, N253P, E256G

[5] = target: T5, PUM1 PUF domain R8-NFV Y1123F + Q1126V (Homo sapiens) (UniProt Q14671)
T5 sequence: T1 sequence with P180C, H181R, S216N, W217Y, D220Q, Y296F, Q299V

[6] = target: T6, PUM1 PUF domain R8-NWG Y1123W + Q1126G (Homo sapiens) (UniProt Q14671)
T6 sequence: T1 sequence with P180C, H181R, S216N, W217Y, D220Q, Y296W, Q299G

[7] = target: T7, PUM1 PUF domain R8-PWS N1122P + Y1123W + Q1126S (Homo sapiens) (UniProt Q14671)
T7 sequence: T1 sequence with P180C, H181R, S216N, W217Y, D220Q, N295P, Y296W, Q299S

[8] = target: T8, PUM1 PUF domain R8-PWW N1122P + Y1123W + Q1126W (Homo sapiens) (UniProt Q14671)
T8 sequence: T1 sequence with P180C, H181R, S216N, W217Y, D220Q, N295P, Y296W, Q299W

[9] = target: T9, PUM1 PUF domain R8-RGW N1122R + Y1123G + Q1126W (Homo sapiens) (UniProt Q14671)
T9 sequence: T1 sequence with P180C, H181R, S216N, W217Y, D220Q, N295R, Y296G, Q299W

[10] = target: T10, PUM1 PUF domain R8-SYW N1122S + Q1126W (Homo sapiens) (UniProt Q14671)
T10 sequence: T1 sequence with P180C, H181R, S216N, W217Y, D220Q, N295S, Q299W

GGCUAGAACUAGUGGAUCCCCCGGCGCCCGGCGGCUCGAGCCCGGGUAAGAUGAGGAAGUCUGCAUGCCGCCGGGCGCCAUGCCUGCAGGUCGACUCUAGAAAACAUG
binding signal (log2 enrichment (interaction score)) [1]: -7.71

GGCUAGAACUAGUGGAUCCCCCGGCGCCCGGCGGCUCGAGCCCGGGUAAGUUGAGCUAGUCUGCAUGCCGCCGGGCGCCAUGCCUGCAGGUCGACUCUAGAAAACAUG
binding signal (log2 enrichment (interaction score)) [1]: -7.3

GGCUAGAACUAGUGGAUCCCCCGGCGCCCGGCGGCUCGAGCCCGGGUAAGGGGGAACCGUCUGCAUGCCGCCGGGCGCCAUGCCUGCAGGUCGACUCUAGAAAACAUG
binding signal (log2 enrichment (interaction score)) [1]: -7.79

GGCUAGAACUAGUGGAUCCCCCGGCGCCCGGCGGCUCGAGCCCGGGUAAGCCGGAAGAGUCUGCAUGCCGCCGGGCGCCAUGCCUGCAGGUCGACUCUAGAAAACAUG
binding signal (log2 enrichment (interaction score)) [1]: < -7.85

GGCUAGAACUAGUGGAUCCCCCGGCGCCCGGCGGCUCGAGCCCGGGUAAGAGCAAGCAGUCUGCAUGCCGCCGGGCGCCAUGCCUGCAGGUCGACUCUAGAAAACAUG
binding signal (log2 enrichment (interaction score)) [1]: < -7.13

GGCUAGAACUAGUGGAUCCCCCGGCGCCCGGCGGCUCGAGCCCGGGUAAGUCUACAUAGUCUGCAUGCCGCCGGGCGCCAUGCCUGCAGGUCGACUCUAGAAAACAUG
binding signal (log2 enrichment (interaction score)) [1]: -8.34

GGCUAGAACUAGUGGAUCCCCCGGCGCCCGGCGGCUCGAGCCCGGGUAAGUGAGAAAGGUCUGCAUGCCGCCGGGCGCCAUGCCUGCAGGUCGACUCUAGAAAACAUG
binding signal (log2 enrichment (interaction score)) [1]: < -7.06

GGCUAGAACUAGUGGAUCCCCCGGCGCCCGGCGGCUCGAGCCCGGGUAAGUUGAAUAGGUCUGCAUGCCGCCGGGCGCCAUGCCUGCAGGUCGACUCUAGAAAACAUG
binding signal (log2 enrichment (interaction score)) [1]: < -7.26

GGCUAGAACUAGUGGAUCCCCCGGCGCCCGGCGGCUCGAGCCCGGGUAAGUUGCAGCCGUCUGCAUGCCGCCGGGCGCCAUGCCUGCAGGUCGACUCUAGAAAACAUG
binding signal (log2 enrichment (interaction score)) [2]: -3.09
binding signal (log2 enrichment (interaction score)) [3]: -1.14

GGCUAGAACUAGUGGAUCCCCCGGCGCCCGGCGGCUCGAGCCCGGGUAAGUGGACACAGUCUGCAUGCCGCCGGGCGCCAUGCCUGCAGGUCGACUCUAGAAAACAUG
binding signal (log2 enrichment (interaction score)) [1]: < -7.78

GGCUAGAACUAGUGGAUCCCCCGGCGCCCGGCGGCUCGAGCCCGGGUAAGUUGGAAUGGUCUGCAUGCCGCCGGGCGCCAUGCCUGCAGGUCGACUCUAGAAAACAUG
binding signal (log2 enrichment (interaction score)) [1]: < -7.11

GGCUAGAACUAGUGGAUCCCCCGGCGCCCGGCGGCUCGAGCCCGGGUAAGCAUAAACUGUCUGCAUGCCGCCGGGCGCCAUGCCUGCAGGUCGACUCUAGAAAACAUG
binding signal (log2 enrichment (interaction score)) [1]: -8.33

GGCUAGAACUAGUGGAUCCCCCGGCGCCCGGCGGCUCGAGCCCGGGUAAGUUGAGAUAGUCUGCAUGCCGCCGGGCGCCAUGCCUGCAGGUCGACUCUAGAAAACAUG
binding signal (log2 enrichment (interaction score)) [1]: < -6.98

GGCUAGAACUAGUGGAUCCCCCGGCGCCCGGCGGCUCGAGCCCGGGUAAGUUGUAAUUGUCUGCAUGCCGCCGGGCGCCAUGCCUGCAGGUCGACUCUAGAAAACAUG
binding signal (log2 enrichment (interaction score)) [1]: -7.04

GGCUAGAACUAGUGGAUCCCCCGGCGCCCGGCGGCUCGAGCCCGGGUAAGUUUCAAACGUCUGCAUGCCGCCGGGCGCCAUGCCUGCAGGUCGACUCUAGAAAACAUG
binding signal (log2 enrichment (interaction score)) [4]: -2.19

GGCUAGAACUAGUGGAUCCCCCGGCGCCCGGCGGCUCGAGCCCGGGUAAGUUUGAUUAGUCUGCAUGCCGCCGGGCGCCAUGCCUGCAGGUCGACUCUAGAAAACAUG
binding signal (log2 enrichment (interaction score)) [4]: -2.04

GGCUAGAACUAGUGGAUCCCCCGGCGCCCGGCGGCUCGAGCCCGGGUAAGCGUAAAUAGUCUGCAUGCCGCCGGGCGCCAUGCCUGCAGGUCGACUCUAGAAAACAUG
binding signal (log2 enrichment (interaction score)) [5]: -2.27
binding signal (log2 enrichment (interaction score)) [6]: -0.72
binding signal (log2 enrichment (interaction score)) [7]: 1.14
binding signal (log2 enrichment (interaction score)) [8]: 1.65
binding signal (log2 enrichment (interaction score)) [9]: -2.27
binding signal (log2 enrichment (interaction score)) [10]: -0.45
